The other results are listed elsewhere or left out.
Experiments:
Experiment in all cases: log2 fold change, soluble protein after heating vs DMSO (PISA); higher = thermal stabilisation; K562 lysate, 10 uM; active = over 0.2 and 3.5 SD of the protein, either way, in both replicates (recomputed)
[1] = compound: C#Cc1cccc(Nc2ncnc3cc(OCCOC)c(OCCOC)cc23)c1 [erlotinib]
Method in brief: (§1)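 A 30 min treatment with 10 μM compound was applied to crude K562 extract at 1 mg/mL protein in PBS pH 7.4 with 1 mM MgCl2. Heating for 3 min spanned 48°C-58°C, after which aliquots were pooled, adjusted to 0.5% NP-40 at 4°C and spun at 21,000xg for 90 min. TMTpro 16plex LC-MS/MS of the supernatant, with channel sums equalised, gave values recorded as log-two fold change in thermal stability against solvent controls, from duplicates.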

Amino acid sequences for entries named in this document (tags omitted). A change or cut given only in a name is not applied to a line headed by its entry.
UniProt Q12972: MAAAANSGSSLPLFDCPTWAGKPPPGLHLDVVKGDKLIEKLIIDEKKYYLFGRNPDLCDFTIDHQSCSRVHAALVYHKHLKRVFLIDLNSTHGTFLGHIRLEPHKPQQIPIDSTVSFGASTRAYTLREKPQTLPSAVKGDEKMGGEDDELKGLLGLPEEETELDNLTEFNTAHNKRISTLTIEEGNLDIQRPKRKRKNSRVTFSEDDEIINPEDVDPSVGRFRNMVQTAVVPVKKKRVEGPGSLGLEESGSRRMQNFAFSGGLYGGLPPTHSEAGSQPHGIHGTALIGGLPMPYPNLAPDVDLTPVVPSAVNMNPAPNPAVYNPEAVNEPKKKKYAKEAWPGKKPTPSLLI
UniProt Q13523: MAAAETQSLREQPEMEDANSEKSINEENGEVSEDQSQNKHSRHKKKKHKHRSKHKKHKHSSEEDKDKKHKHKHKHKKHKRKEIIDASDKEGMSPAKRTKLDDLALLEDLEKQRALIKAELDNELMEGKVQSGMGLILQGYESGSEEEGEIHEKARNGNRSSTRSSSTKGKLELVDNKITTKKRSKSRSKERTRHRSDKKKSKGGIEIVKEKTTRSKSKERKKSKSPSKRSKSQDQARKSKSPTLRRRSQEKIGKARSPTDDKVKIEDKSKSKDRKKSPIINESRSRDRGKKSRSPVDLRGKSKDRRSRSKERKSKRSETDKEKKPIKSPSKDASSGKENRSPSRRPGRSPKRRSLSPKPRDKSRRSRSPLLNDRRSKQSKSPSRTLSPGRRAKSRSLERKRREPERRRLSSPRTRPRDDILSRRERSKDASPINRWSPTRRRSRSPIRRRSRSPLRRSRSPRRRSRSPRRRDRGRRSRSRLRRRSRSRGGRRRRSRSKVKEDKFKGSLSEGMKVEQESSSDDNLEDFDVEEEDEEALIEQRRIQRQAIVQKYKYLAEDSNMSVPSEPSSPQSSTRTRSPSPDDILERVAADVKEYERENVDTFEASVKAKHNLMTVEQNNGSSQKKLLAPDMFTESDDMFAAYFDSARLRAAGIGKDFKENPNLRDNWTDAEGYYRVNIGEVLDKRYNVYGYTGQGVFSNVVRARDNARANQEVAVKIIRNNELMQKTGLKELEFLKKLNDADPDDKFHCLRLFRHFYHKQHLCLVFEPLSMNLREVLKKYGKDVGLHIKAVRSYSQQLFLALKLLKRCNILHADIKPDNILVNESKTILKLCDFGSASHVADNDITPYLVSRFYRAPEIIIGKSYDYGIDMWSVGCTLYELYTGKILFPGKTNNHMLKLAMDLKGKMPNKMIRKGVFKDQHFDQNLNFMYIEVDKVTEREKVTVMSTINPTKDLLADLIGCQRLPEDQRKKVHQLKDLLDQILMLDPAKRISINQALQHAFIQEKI
UniProt P30044: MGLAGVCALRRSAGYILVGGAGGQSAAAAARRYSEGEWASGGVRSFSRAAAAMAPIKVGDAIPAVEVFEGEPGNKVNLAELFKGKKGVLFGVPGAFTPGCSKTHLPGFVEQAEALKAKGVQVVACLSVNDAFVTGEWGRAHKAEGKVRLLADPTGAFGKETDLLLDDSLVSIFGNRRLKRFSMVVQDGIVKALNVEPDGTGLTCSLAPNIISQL
UniProt P78395, whole entry, looked up: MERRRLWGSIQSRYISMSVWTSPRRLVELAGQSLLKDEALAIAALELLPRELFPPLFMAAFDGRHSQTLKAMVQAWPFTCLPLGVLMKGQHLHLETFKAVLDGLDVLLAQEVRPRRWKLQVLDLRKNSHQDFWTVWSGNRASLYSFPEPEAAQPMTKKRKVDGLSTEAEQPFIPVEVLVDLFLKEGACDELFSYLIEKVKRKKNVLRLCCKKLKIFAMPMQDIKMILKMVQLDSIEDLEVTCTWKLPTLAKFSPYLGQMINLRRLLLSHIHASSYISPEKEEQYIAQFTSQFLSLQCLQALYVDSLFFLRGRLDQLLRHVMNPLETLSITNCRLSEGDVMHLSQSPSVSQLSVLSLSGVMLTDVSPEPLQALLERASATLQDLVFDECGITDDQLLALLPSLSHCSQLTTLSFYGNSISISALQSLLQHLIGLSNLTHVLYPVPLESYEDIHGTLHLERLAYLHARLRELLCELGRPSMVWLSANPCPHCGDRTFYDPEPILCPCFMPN
UniProt Q9BZL6: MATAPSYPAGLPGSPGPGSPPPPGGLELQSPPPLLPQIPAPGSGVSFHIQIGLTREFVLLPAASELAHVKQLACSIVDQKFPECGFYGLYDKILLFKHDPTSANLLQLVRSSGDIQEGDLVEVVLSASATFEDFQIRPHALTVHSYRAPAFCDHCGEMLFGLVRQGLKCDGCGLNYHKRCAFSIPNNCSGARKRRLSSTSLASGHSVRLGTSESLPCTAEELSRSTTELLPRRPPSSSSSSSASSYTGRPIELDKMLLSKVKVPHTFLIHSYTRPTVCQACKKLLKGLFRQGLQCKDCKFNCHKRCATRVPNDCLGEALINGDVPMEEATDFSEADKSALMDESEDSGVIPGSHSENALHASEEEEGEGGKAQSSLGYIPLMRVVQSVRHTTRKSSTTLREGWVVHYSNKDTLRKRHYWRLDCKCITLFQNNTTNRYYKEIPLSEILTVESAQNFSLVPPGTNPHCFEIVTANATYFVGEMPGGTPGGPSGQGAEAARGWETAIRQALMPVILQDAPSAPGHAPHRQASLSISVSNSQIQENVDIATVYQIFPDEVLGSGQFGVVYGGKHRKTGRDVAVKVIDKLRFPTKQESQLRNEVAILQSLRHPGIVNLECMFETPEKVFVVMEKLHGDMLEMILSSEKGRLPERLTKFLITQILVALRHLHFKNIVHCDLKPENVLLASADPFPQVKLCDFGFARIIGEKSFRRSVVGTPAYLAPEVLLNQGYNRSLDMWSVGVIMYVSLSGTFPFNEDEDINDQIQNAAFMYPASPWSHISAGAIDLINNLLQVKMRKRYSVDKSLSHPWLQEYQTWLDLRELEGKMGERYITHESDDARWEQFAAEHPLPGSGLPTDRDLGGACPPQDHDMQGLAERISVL
UniProt K7ELL7: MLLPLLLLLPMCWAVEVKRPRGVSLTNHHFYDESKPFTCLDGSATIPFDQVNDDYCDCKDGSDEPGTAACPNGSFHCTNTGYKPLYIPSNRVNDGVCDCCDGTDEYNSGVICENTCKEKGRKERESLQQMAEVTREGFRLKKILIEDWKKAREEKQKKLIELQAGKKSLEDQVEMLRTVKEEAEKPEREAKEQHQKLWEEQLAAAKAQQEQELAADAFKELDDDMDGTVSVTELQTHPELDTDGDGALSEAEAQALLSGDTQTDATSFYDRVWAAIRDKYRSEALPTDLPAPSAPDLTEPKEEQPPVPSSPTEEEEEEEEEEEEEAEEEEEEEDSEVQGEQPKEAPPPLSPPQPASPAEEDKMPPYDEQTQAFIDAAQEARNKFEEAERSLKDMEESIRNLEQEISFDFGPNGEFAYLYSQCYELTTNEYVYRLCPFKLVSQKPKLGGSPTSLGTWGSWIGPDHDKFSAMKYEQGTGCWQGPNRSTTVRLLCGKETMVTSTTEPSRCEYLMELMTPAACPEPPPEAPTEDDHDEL
UniProt Q13362, whole entry, looked up: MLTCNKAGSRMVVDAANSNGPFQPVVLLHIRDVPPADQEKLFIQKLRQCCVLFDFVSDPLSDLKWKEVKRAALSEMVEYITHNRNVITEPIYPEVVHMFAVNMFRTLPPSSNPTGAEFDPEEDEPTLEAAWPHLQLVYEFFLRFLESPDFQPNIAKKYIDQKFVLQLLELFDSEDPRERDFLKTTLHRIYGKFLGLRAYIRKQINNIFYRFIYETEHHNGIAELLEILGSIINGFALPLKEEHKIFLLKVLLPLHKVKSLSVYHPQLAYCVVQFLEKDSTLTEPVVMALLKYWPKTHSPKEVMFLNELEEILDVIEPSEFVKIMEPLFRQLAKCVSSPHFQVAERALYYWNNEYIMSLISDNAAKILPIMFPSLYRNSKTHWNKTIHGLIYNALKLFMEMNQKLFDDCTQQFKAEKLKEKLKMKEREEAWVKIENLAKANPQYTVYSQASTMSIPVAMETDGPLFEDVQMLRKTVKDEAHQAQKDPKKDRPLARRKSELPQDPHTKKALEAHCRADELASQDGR
UniProt P48454, whole entry, looked up: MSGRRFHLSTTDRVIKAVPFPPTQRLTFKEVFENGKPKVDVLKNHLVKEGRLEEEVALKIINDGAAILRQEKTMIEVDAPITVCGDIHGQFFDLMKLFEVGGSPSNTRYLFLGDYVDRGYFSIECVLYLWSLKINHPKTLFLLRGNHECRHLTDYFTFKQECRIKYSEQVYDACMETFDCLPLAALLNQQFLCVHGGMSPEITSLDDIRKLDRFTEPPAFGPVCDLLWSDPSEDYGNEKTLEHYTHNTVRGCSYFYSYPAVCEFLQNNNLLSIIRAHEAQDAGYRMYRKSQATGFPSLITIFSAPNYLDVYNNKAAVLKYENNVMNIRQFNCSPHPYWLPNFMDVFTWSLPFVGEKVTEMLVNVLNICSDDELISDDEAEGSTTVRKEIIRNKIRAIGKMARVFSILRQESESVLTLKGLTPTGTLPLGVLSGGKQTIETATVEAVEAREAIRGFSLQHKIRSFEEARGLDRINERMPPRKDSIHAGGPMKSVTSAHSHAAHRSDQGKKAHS
UniProt O15091: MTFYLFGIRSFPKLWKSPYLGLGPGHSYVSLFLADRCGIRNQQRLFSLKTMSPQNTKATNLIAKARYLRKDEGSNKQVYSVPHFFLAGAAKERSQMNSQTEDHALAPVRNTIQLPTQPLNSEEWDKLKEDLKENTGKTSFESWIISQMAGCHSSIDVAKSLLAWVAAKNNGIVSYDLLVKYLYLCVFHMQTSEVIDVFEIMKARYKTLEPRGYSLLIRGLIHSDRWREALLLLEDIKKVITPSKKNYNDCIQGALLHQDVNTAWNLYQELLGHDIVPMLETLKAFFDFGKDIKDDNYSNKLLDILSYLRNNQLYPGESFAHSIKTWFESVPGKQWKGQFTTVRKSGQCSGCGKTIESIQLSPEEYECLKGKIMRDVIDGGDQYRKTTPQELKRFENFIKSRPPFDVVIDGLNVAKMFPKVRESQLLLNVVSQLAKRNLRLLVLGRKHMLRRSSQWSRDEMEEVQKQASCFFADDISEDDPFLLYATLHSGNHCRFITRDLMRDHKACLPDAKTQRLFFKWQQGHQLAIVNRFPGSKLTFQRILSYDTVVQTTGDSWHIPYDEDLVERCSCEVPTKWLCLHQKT
UniProt P30405: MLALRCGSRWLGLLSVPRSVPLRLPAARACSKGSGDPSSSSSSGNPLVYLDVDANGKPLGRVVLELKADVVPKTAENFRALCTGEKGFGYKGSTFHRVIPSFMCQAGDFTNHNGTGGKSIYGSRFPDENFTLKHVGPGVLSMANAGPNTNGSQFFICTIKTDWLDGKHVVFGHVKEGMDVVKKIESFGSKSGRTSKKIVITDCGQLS
UniProt Q8TF05: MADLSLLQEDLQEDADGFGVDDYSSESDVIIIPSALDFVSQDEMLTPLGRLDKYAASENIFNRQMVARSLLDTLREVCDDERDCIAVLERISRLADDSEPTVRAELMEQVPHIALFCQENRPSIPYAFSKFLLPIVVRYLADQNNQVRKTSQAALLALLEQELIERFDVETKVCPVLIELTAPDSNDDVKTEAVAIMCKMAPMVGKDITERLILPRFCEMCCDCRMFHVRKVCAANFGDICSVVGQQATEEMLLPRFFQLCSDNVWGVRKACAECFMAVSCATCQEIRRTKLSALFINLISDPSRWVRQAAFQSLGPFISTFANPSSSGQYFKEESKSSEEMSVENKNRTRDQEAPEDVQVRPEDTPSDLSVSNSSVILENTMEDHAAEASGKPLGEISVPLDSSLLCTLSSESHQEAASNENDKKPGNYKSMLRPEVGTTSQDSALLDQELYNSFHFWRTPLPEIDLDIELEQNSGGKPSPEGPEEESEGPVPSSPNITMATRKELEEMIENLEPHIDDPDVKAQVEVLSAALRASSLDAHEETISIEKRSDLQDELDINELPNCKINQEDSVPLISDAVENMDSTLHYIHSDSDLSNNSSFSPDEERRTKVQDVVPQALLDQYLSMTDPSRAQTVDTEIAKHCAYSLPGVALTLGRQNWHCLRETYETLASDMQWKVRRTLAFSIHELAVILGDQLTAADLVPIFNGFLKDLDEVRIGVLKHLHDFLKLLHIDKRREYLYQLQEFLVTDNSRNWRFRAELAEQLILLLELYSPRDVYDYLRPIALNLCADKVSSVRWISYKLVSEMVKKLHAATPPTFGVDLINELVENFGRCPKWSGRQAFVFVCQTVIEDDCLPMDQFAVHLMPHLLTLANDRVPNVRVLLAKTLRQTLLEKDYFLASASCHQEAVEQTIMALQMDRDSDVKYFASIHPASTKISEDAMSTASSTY
UniProt Q8NAV1: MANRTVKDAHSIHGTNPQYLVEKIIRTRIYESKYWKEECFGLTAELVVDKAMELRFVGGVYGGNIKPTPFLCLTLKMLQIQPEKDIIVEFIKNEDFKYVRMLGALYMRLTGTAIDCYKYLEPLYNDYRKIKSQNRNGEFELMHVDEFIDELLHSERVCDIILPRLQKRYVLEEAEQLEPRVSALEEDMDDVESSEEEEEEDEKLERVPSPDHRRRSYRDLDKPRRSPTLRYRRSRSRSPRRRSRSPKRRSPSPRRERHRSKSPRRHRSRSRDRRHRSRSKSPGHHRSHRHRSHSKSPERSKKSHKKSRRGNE

[2] = compound: C/C(=N\NC(=O)C1=CC(=CC=C1)S(=O)(=O)N2CCOCC2)/C3=C(C=CC(=C3)Cl)O
Method in brief: as §1

[3] = compound: C1=CC(=CC=C1C2=NC3=C(N2)C=C(C=C3)C(=O)N)OC4=CC=C(C=C4)Cl
Method in brief: as §1

[4] = compound: C1=CC2=C(C=CC(=C2)/C=C\3/C(=O)NC(=NCC4=CC=CS4)S3)N=C1
Method in brief: as §1

[5] = compound: C1=CC2=NC=CN=C2C=C1/C=C/3\C(=O)NC(=O)S3
Method in brief: as §1

[6] = compound: C1=CC=C(C=C1)C2=NC(=C(N2)C3=CC=NC=C3)C4=CC(=C(C=C4)Cl)O
Method in brief: as §1

[7] = compound: C1=CC=C2C(=C1)C3=NNC4=CC=CC(=C43)C2=O
Method in brief: as §1

[8] = compound: C1CCN(C1)C(=O)NC2=CC=CC(=C2)NC3=NC=C(C(=N3)NCCC4=CN=CN4)Br
Method in brief: as §1

[9] = compound: C1CN(CCC1(CC2=CC=C(C=C2)Cl)N)C3=NC=NC4=C3C=CN4
Method in brief: as §1

[10] = compound: C1COCCN1CCN2C3=CC=CC=C3N=C2NC(=O)C4=CC(=CC=C4)[N+](=O)[O-] [IRAK-1-4 Inhibitor I]
Method in brief: as §1

[11] = compound: C=CC(=O)N1CCC[C@@H](n2nc(-c3ccc(Oc4ccccc4)cc3)c3c(N)ncnc32)C1 [ibrutinib]
Method in brief: as §1

[12] = compound: CC(=O)c1cnc2ccc(-c3cc(Cl)c(O)c(Cl)c3)nc2c1N[C@H]1CC[C@H](CN(C)C)CC1
Method in brief: as §1

[13] = compound: CC(C)(C)Cn1c(N)nc2ccc(-c3[nH]c(C(C)(C)C)nc3-c3ccc(F)cc3)nc21 [ralimetinib]
Method in brief: as §1

[14] = compound: CC(C)(O)CC(=O)NCCn1ccc2ncnc(Nc3ccc(Oc4cccc(C(F)(F)F)c4)c(Cl)c3)c21
Method in brief: as §1

[15] = compound: CC(C)C1=C2N=C(C=C(N2N=C1)NCC3=CC=CC=C3)NCCCCCCN
Method in brief: as §1

[16] = compound: CC1=C(C(CC(=O)N1)C2=CC=C(C=C2)C(F)(F)F)C(=O)NC3=C(C=C4C(=C3)C=NN4)F
Method in brief: as §1

[17] = compound: CC1=C(C2=C(C=C1)C(=O)C3=CC=CC=C3N2CCCN)C
Method in brief: as §1

[18] = compound: CC1=C(C=C(C=C1)NC(=O)C2=CC(=CC=C2)C(C)(C)C#N)NC3=CC4=C(C=C3)N=CN(C4=O)C
Method in brief: as §1

[19] = compound: CC1=C(C=C(C=C1)NC(=O)C2=CC(=CC=C2)N(C)C)NC(=O)C3=CC=C(C=C3)O
Method in brief: as §1

[20] = compound: CC1=CC=C(C=C1)SC2=C3C=C(SC3=CN=C2)C(=O)N
Method in brief: as §1

Measured: log2 fold change

PPP2R5A (UniProt Q15172)
inactive: [1] 0.037 | [2] 0.001 | [3] 0.005 | [4] 0.023 | [5] 0.016 | [6] -0.017 | [7] 0.009 | [8] 0 | [9] 0.061 | [10] 0.015 | [11] -0.004 | [12] 0.02 | [13] 0.022 | [14] -0.019 | [15] 0.012 | [16] 0.06 | [17] 0.033 | [18] -0.011 | [19] 0.015 | [20] 0.013

PPP1R8 (UniProt Q12972)
inactive: [1] 0.002 | [2] -0.032 | [3] 0.029 | [4] 0.002 | [5] -0.012 | [6] 0.008 | [7] 0.007 | [8] -0.009 | [9] 0.02 | [10] 0.008 | [11] -0.029 | [12] -0.026 | [13] -0.039 | [14] -0.031 | [15] 0.011 | [16] -0.011 | [17] -0.034 | [18] 0.002 | [19] -0.036 | [20] -0.028

PRPF4B (UniProt Q13523)
inactive: [1] 0.024 | [2] -0.01 | [3] -0.046 | [4] 0.113 | [5] 0.012 | [6] 0.013 | [7] 0.083 | [8] 0.008 | [9] 0.03 | [10] -0.025 | [11] 0.009 | [12] 0.002 | [13] -0.022 | [14] 0.008 | [15] -0.014 | [16] -0.047 | [17] -0.047 | [18] 0.011 | [19] -0.007 | [20] 0.019

PRDX5 (UniProt P30044)
inactive: [1] -0.003 | [2] 0.028 | [3] -0.004 | [4] -0.014 | [5] -0.022 | [6] -0.005 | [7] -0.004 | [8] 0.026 | [9] 0.029 | [10] 0.015 | [11] 0.002 | [12] -0.01 | [13] 0.01 | [14] -0.02 | [15] -0.007 | [16] -0.027 | [17] 0.002 | [18] 0.02 | [19] -0.012 | [20] 0.003

PRAME (UniProt P78395)
inactive: [1] 0.02 | [2] -0.056 | [3] -0.001 | [4] -0.027 | [5] -0.037 | [6] 0.013 | [7] -0.043 | [8] -0.004 | [9] 0.007 | [10] -0.008 | [11] 0.009 | [12] 0.029 | [13] 0.003 | [14] 0.005 | [15] 0.011 | [16] 0.015 | [17] 0.003 | [18] 0.006 | [19] 0.008 | [20] 0.002

PRKD2 isoform 3 (UniProt Q9BZL6)
inactive: [1] 0.085 | [2] -0.047 | [3] 0.031 | [4] -0.112 | [5] 0.028 | [6] 0.014 | [7] -0.037 | [8] -0.175 | [9] -0.009 | [10] 0.021 | [11] 0.026 | [12] -0.065 | [13] 0.019 | [14] -0.122 | [15] 0.045 | [16] 0.04 | [17] -0.111 | [18] -0.034 | [19] 0.046 | [20] 0.007

PRKCSH (UniProt K7ELL7)
inactive: [1] -0.01 | [2] -0.124 | [3] 0.004 | [4] -0.056 | [5] 0 | [6] -0.036 | [7] -0.061 | [8] -0.096 | [9] -0.038 | [10] -0.039 | [11] -0.05 | [12] 0.018 | [13] 0.049 | [14] -0.051 | [15] 0.049 | [16] 0.006 | [17] -0.017 | [18] -0.019 | [19] 0.005 | [20] -0.052

PPP2R5C isoform 4 (UniProt Q13362)
inactive: [1] 0.025 | [2] -0.048 | [3] -0.054 | [4] -0.012 | [5] -0.009 | [6] 0.044 | [7] -0.01 | [8] 0.046 | [9] 0.08 | [10] 0.002 | [11] 0.023 | [12] -0.011 | [13] -0.089 | [14] -0.05 | [15] -0.032 | [16] -0.003 | [17] 0.095 | [18] 0.05 | [19] 0.012 | [20] 0.001

PPP3CC (UniProt P48454)
inactive: [1] -0.032 | [2] -0.019 | [3] -0.037 | [4] -0.068 | [5] 0 | [6] -0.051 | [7] 0.012 | [8] -0.044 | [9] -0.042 | [10] -0.03 | [11] 0.019 | [12] 0.002 | [13] 0.04 | [14] -0.056 | [15] 0.008 | [16] -0.067 | [17] 0.015 | [18] 0.051 | [19] -0.021 | [20] 0.022

PRORP (UniProt O15091)
inactive: [1] 0 | [2] -0.067 | [3] 0.132 | [4] 0.049 | [5] 0.349 | [6] -0.122 | [7] -0.08 | [8] -0.102 | [9] 0.047 | [10] -0.055 | [11] 0.013 | [12] 0.007 | [13] -0.075 | [14] 0.012 | [15] 0.053 | [16] 0.107 | [17] -0.087 | [18] 0.052 | [19] -0.133 | [20] -0.017

PRMT9 (UniProt Q6P2P2)
inactive: [1] 0.003 | [2] -0.001 | [3] 0.003 | [4] 0.027 | [5] -0.001 | [6] 0.029 | [7] 0.026 | [8] -0.005 | [9] -0.017 | [10] -0.004 | [11] 0.036 | [12] -0.002 | [13] -0.007 | [14] -0.02 | [15] -0.016 | [16] 0.002 | [17] 0.017 | [18] -0.01 | [19] 0 | [20] 0.002

PPP4R2 (UniProt Q9NY27)
inactive: [1] 0.004 | [2] -0.007 | [3] 0.025 | [4] 0.063 | [5] -0.029 | [6] -0.02 | [7] 0.013 | [8] 0.004 | [9] 0.004 | [10] 0.012 | [11] -0.012 | [12] -0.007 | [13] -0.015 | [14] -0.058 | [15] 0.003 | [16] 0 | [17] 0 | [18] -0.007 | [19] 0.003 | [20] -0.019

Reprinted at random: 2 records from the list.
PPP3CC (UniProt P48454)
inactive: [1] -0.032 | [2] -0.019 | [3] -0.037 | [4] -0.068 | [5] 0 | [6] -0.051 | [7] 0.012 | [8] -0.044 | [9] -0.042 | [10] -0.03 | [11] 0.019 | [12] 0.002 | [13] 0.04 | [14] -0.056 | [15] 0.008 | [16] -0.067 | [17] 0.015 | [18] 0.051 | [19] -0.021 | [20] 0.022

PPP1R8 (UniProt Q12972)
inactive: [1] 0.002 | [2] -0.032 | [3] 0.029 | [4] 0.002 | [5] -0.012 | [6] 0.008 | [7] 0.007 | [8] -0.009 | [9] 0.02 | [10] 0.008 | [11] -0.029 | [12] -0.026 | [13] -0.039 | [14] -0.031 | [15] 0.011 | [16] -0.011 | [17] -0.034 | [18] 0.002 | [19] -0.036 | [20] -0.028

More records:

PPIF (UniProt P30405)
inactive: [1] -0.019 | [2] 0.029 | [3] 0.04 | [4] -0.028 | [5] -0.036 | [6] -0.031 | [7] -0.019 | [8] -0.02 | [9] 0.01 | [10] -0.004 | [11] 0.032 | [12] -0.03 | [13] 0.002 | [14] -0.029 | [15] 0.004 | [16] -0.033 | [17] 0.005 | [18] 0.016 | [19] -0.009 | [20] -0.017

PPP4R1 (UniProt Q8TF05)
inactive: [1] 0.009 | [2] -0.063 | [3] -0.018 | [4] 0.055 | [5] 0.041 | [6] -0.016 | [7] -0.019 | [8] -0.005 | [9] 0.002 | [10] 0.006 | [11] 0.002 | [12] 0.005 | [13] 0.026 | [14] -0.02 | [15] -0.013 | [16] -0.021 | [17] 0.002 | [18] -0.003 | [19] -0.012 | [20] 0

PRPF38A (UniProt Q8NAV1)
inactive: [1] -0.012 | [2] -0.016 | [3] 0.049 | [4] -0.025 | [5] 0.044 | [6] 0.05 | [7] 0.042 | [8] 0.005 | [9] -0.018 | [10] 0.057 | [11] 0 | [12] -0.001 | [13] 0.01 | [14] -0.011 | [15] 0.054 | [16] 0.027 | [17] -0.128 | [18] 0.094 | [19] -0.075 | [20] 0.018

PPP1R9B (UniProt Q96SB3)
inactive: [1] -0.018 | [2] -0.004 | [3] 0.021 | [4] 0.002 | [5] 0.032 | [6] -0.015 | [7] 0.028 | [8] -0.03 | [9] -0.009 | [10] -0.01 | [11] 0.05 | [12] -0.02 | [13] 0.025 | [14] -0.016 | [15] -0.015 | [16] -0.03 | [17] -0.01 | [18] -0.029 | [19] 0.015 | [20] -0.01

Reference: the supplement of paper PMC10849652
